This test has as its target T1, Aromatase enzyme (CYP19) (Homo sapiens, UniProt P11511).
T1 construct: purchased BD Biosciences, San Jose, CA
T1 sequence (P11511 1-503): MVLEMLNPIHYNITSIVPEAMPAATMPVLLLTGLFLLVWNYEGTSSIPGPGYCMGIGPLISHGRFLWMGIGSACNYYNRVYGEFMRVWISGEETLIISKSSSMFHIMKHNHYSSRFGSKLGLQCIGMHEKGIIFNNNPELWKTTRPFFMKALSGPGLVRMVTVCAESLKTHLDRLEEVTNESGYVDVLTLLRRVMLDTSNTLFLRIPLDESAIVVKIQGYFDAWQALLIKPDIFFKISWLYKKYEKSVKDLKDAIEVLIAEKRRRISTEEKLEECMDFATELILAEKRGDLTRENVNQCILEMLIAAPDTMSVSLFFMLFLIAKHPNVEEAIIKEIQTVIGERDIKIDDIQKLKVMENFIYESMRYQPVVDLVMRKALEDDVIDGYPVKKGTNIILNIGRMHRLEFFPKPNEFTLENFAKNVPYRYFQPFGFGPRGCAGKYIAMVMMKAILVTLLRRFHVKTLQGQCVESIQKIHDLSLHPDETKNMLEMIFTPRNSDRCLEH
As to the kind of experiment: In vitro aromatase inhibition assay (dibenzylfluorescein). The class given is biochemical. The following applies: ± SD.

As a reminder, the IC50 is the concentration that gives 50% inhibition. Low readings indicate inhibition by little substance, high ones a need for much substance.

`O=c1c(O)c(-c2ccc(O)c(O)c2)oc2cc(O)cc(O)c12` [C2, 5,7,3′,4′-tetrahydroxy flavonol] gave an IC50 of 761 nM.
